Where “and” joins values, the source holds several entries; their conditions need not be identical. Identical values can stand only once. The whole screen tested about 400,000 compounds, of which about 3,700 (0.93%) were called active. Inconclusive means that the source gave no clear call. Such entries were picked first, then a sample of the others. Calls follow the shape of the dose curve; as a rule, active = well fitted inhibition curve with a large enough effect; inconclusive = small, poorly fitted or top-dose-only effect, or another doubt; inactive = no such curve, though single readings can be large or run the other way. A potency beside an inconclusive call is a rough fit, not a confirmed value.
Target: Vitamin D3 receptor (Homo sapiens) (UniProt P11473)
Assay: Inhibitors of the vitamin D receptor (VDR): qHTS
Details: VDR-SRC2-3 peptide fluorescence polarization, 2 h; max response, negative = inhibition: hits give low values
In short: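 Fluorescence polarization assay of small-molecule disruption of VDR binding to coregulator peptide SRC2-3. Compounds and controls pin-transferred, then read after 2 h incubation at ambient room temperature.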
% is scaled to controls: 0 for no effect and ±100 for the full control effect; potency is read from the fitted curve at half-maximal effect.

Sequences of proteins named here, by UniProt entry; tags and fusion partners are left off. A change or cut given only in a name is not applied to a line headed by its entry.
UniProt P11473: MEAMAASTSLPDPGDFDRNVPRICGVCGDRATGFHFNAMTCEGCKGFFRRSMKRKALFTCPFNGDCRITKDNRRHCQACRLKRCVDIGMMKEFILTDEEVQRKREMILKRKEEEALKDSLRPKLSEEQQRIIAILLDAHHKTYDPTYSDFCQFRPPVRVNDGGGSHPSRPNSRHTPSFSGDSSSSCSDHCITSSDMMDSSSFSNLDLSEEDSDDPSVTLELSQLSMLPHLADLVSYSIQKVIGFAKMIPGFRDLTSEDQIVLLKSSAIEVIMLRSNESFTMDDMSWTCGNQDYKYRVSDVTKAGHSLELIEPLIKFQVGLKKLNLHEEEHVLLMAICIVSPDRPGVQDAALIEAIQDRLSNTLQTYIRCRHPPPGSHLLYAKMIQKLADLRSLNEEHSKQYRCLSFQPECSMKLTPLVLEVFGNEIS

Row | SMILES | Potency | max response, negative = inhibition
1 | O=C(Nc1nc(=O)c2ccccc2s1)c1ccc(F)cc1 | active: 70.8 µM | –
2 | O=C(Cn1nc(C(=O)O)c2ccccc2c1=O)Nc1cccc(Br)c1 | inconclusive: 2.24 µM [inhibitor, partial curve, poor fit] | –
3 | C/C(CCc1ccc2c(c1)OCO2)=N\NC(=O)c1ccccc1Cl | inconclusive: 89.1 µM [inhibitor, single point] | –
4 | C[C@H](NC(=O)c1nc[nH]c1C(=O)NC1CCNCC1)C(=O)OC(C)(C)C | – | inactive: -6.4%
5 | Cc1ccc2nc(/C(C#N)=C/c3ccc(-c4cccc([N+](=O)[O-])c4)o3)[nH]c2c1 | – | inactive: -2.99%
6 | CCC(C)Sc1nc2c(c(=O)[nH]c(=O)n2C)n1C (stereo not given) | inconclusive: 89.1 µM [inhibitor, single point] | –
7 | Cc1cc(C2=NNC(=NC3CC3)SC2)c(C)n1-c1ccccc1 | inconclusive: 100 µM [inhibitor, single point] | –
8 | O=C(Nc1nc2n(n1)C(c1ccc(F)cc1)C=C(c1ccccc1)N2)c1ccco1 (stereo not given) | – | inactive: -0.161%
9 | CC/C=C\C/C=C\C/C=C\C/C=C\C/C=C\C/C=C\CCC(=O)NC(C)C(=O)O (stereo not given) | inconclusive: 89.1 µM [inhibitor, single point] | –
10 | O=C(COc1c(Br)cc(Br)c2cccnc12)Nc1ccccc1F | – | inactive: -17.9%
11 | COc1ccc(CCNC(=O)CSc2nnnn2-c2ccc(OC)c(OC)c2)cc1OC | – | inactive: 11.4%
12 | CCOC(=O)c1c(C)n(C)c2ccc(O)c(CN3CCC(C)CC3)c12 | active: 89.1 µM | –
13 | COc1cccc(CN2CCN(C(=O)CCc3nnc(C4CCCCC4)o3)CC2=O)c1 | inconclusive: 28.2 µM [inhibitor, partial curve, poor fit] | –
14 | O=C(O)CC1S/C(=N/N=C/c2ccc(-c3ccccc3[N+](=O)[O-])o2)NC1=O (stereo not given) | active: 79.4 µM | –
15 | CC1(C)CC(=O)C/C(=N\NC(=O)c2cccs2)C1 | inconclusive: 44.7 µM [inhibitor, partial curve] | –
16 | Cc1ccc(NC(=O)/C(=C\c2ccco2)NC(=O)c2ccco2)cc1 | inconclusive: 17.8 µM [inhibitor, partial curve, poor fit] | –
17 | CC(=O)Nc1ccc(NC(=O)c2nc(S(=O)(=O)Cc3cccc(C)c3)ncc2Cl)cc1 | inconclusive: 14.1 µM [inhibitor, full curve, poor fit] | –
18 | COC(=O)CCC(=O)OC1(C)C(=O)C2=COC(c3ccc(OC)cc3)=CC2=C(Br)C1=O (stereo not given) | inconclusive: 35.5 µM [inhibitor, partial curve] | –
19 | CNc1oc(/C=C/c2cccc(OC)c2)nc1C#N | inconclusive: 56.2 µM [inhibitor, partial curve, poor fit] | –
20 | COc1cc(/C=C2\C(=O)N(CCC#N)N=C2C)c(Br)cc1OC(C)C | inconclusive: 79.4 µM [inhibitor, partial curve] | –
21 | COc1ccc(CCNC(=O)CSc2nnc(CNC(=O)c3cc(OC)c(OC)c(OC)c3)o2)cc1OC | inconclusive: 50.1 µM [inhibitor, partial curve, poor fit] | –
22 | Cc1ccc(-c2nc3c4ccccc4[nH]c(=O)n3n2)cc1 | – | inactive: -22.5%

Row | SMILES | Potency | max response, negative = inhibition
23 | O=[N+]([O-])c1c(NCCO)cc(Sc2nc3ccccc3s2)c2nonc12 | active: 14.1 µM | –
24 | CCc1nc2ccc(C(=O)N3CCN(c4cccc(C)c4C)CC3)cc2nc1CC | inconclusive: 22.4 µM [inhibitor, single point] | –
25 | Cc1cccc(C(C)C)c1NC(=O)c1cccnc1 | inconclusive: 2.82 µM [inhibitor, partial curve, poor fit] | –
26 | CCOc1ccc(-c2cc(OC(=O)c3ccc(OC)cc3)c3c(C)oc(C)c3c(=O)c2)cc1 | inconclusive: 35.5 µM [inhibitor, full curve] | –
27 | COc1cc2nc(C3CCC3)n(NC(=O)COc3ccccc3)c(=O)c2cc1OC | inconclusive: 56.2 µM [inhibitor, partial curve, poor fit] | –
28 | CCN(C(=O)c1coc(=O)c(Br)c1)c1ccc2c(c1)OCO2 | inconclusive: 89.1 µM [inhibitor, single point] | –
29 | CCN(CC)C(=O)C(=O)c1cc(C)n(-c2ccc(F)cc2)c1C | inconclusive: 70.8 µM [inhibitor, partial curve] | –
30 | CCS(=O)(=O)c1ncc(Cl)c(C(=O)Nc2ccc(C)cc2)n1 | active: 15.8 µM | –
31 | Cc1ccc(C)c2c1cc(C)c1nnc(SCC(=O)c3cccs3)n12 | – | inactive: -5.38%
32 | O=C(Nc1c(C(=O)Nc2ccc(F)cc2)oc2ccccc12)c1cc2ccccc2o1 | – | inactive: -9.68%
33 | Cn1ccc2cc3c(cc21)CCN3C(=O)Nc1cccnc1 | inconclusive: 100 µM [inhibitor, single point] | –
34 | COc1cccc(/C=C2\Oc3cc(OCC(=O)N4Cc5ccccc5C[C@H]4C(=O)O)ccc3C2=O)c1 | inconclusive: 79.4 µM [inhibitor, partial curve] | –
35 | CN(c1ccccc1)c1ccc(/C=N/NC(=O)CC#N)cc1 | inconclusive: 3.55 µM [inhibitor, full curve] | –
36 | CNc1nc(N(C)C)nc(N(C)C)n1 | inconclusive: 89.1 µM [inhibitor, partial curve, poor fit] | –
37 | O=C(CN1C(=O)NC2(CCCC2)C1=O)Nc1nc2ccc(F)cc2s1 | inconclusive: 44.7 µM [inhibitor, partial curve] | –
38 | Cc1ccc(NC(=O)CSCc2ccco2)cc1 | – | inactive: -5.31%
39 | COc1ccc(C(=O)N2CCCC(CCC(=O)NCc3ccc(F)c(F)c3)C2)o1 (stereo not given) | inconclusive: 56.2 µM [inhibitor, partial curve, poor fit] | –
40 | Cc1ccc2[nH]c3c(c2c1)SC(C)(C)CC3=O | inconclusive: 89.1 µM [inhibitor, single point] | –
41 | CCn1c(CCNC(=O)c2ccc(C)cc2)n[nH]c1=S | – | inactive: -5.81%
42 | COc1ccc(C(=O)/C=C/c2cc(C(=O)O)cc3c2OCOC3)c(O)c1 | inconclusive: 28.2 µM [inhibitor, partial curve, poor fit] | –
43 | CCOC(=O)c1cccc(NC(=O)C2CCCN(S(=O)(=O)c3ccc4c(c3)oc(=O)n4C)C2)c1 (stereo not given) | inconclusive: 89.1 µM [inhibitor, partial curve, poor fit] | –
44 | COc1ccc(C=C(C(C)=O)C(C)=O)cc1OC | – | inactive: 7.02%

Row | SMILES | Potency | max response, negative = inhibition
45 | CC(C)c1ccccc1NC(=O)C1CN(S(=O)(=O)c2ccccc2)CCN1S(=O)(=O)c1ccccc1 (stereo not given) | inconclusive: 89.1 µM [inhibitor, partial curve, poor fit] | –
46 | COc1ccc(OC)c(-c2csc(NC(=O)Cc3cc(OC)c(OC)c(OC)c3)n2)c1 | inconclusive: 4.47 µM [inhibitor, full curve, poor fit] | –
47 | O=C(CCN1C(=O)S/C(=C\c2ccc(F)cc2)C1=O)Nc1ccc(O)cc1C(=O)O | inconclusive: 100 µM [inhibitor, partial curve, poor fit] | –
48 | COc1ccc(-c2[nH]c(-c3ccccc3)nc2SCC(=O)NCc2ccco2)cc1OC | – | inactive: 9.65%
49 | O=C(COC(=O)c1ccco1)NCC1CCCO1 (stereo not given) | inconclusive: 28.2 µM [inhibitor, partial curve, poor fit] | –
50 | COc1cccc(C2CC(=O)NC(SC)=C2C#N)c1 (stereo not given) | – | inactive: -10.9%
51 | COc1ccccc1/C=C/C1=NC(=C\C=C/c2ccccc2)/C(=O)O1 | inconclusive: 89.1 µM [inhibitor, partial curve, poor fit] | –
52 | CCOc1cc(/C=C2\COc3ccccc3C2=O)cc(Br)c1OCC(=O)N(C)C | active: 20 µM | –
53 | CCOC(=O)c1c(-c2ccccc2)csc1NC(=O)c1cc(-c2ccc(Br)cc2)on1 | active: 79.4 µM | –
54 | O=C(C=Cc1ccccc1)c1ccc([N+](=O)[O-])cc1 | active: 10 µM | –
55 | CC(OC(=O)c1cccc(-n2cnnn2)c1)C(=O)Nc1ccccc1F (stereo not given) | – | inactive: -0.173%
56 | CCCCNC(=O)N1CCc2ccccc2C1 | inconclusive: 12.6 µM [inhibitor, partial curve, poor fit] | –
57 | Cc1cc(O)cc(O)c1C(=O)OC1(C)C(=O)C=C2C=C(/C=C/CO)OC=C2C1=O (stereo not given) | inconclusive: 44.7 µM [inhibitor, partial curve] | –
58 | Cc1cc(C)n2nc(C(=O)OCC(=O)c3cc(C)n(C)c3C)nc2n1 | – | inactive: 3.7%
59 | CC(C)[C@@H](CC(=O)N[C@@H]1CCCC[C@H]1C(=O)N[C@H](CC(=O)N[C@@H](CCC(=O)O)CC(=O)O)Cc1c[nH]c2ccccc12)NC(=O)C[C@H](CO)NC(=O)[C@@H]1CNCC[C@H]1N | – | inactive: -3.35%
60 | CCN1C(=O)/C(=C/N(C(C)=O)c2ccccc2)N(c2ccccc2)C1=S | inconclusive: 56.2 µM [inhibitor, single point] | –
61 | O=C(O)c1cc(N/N=C/c2ccc(-c3ccccc3)cc2)ccc1Cl | inconclusive: 56.2 µM [inhibitor, partial curve, poor fit] | –
62 | O=C1C(=O)N(Cc2cccnc2)C(c2cccc(O)c2)/C1=C(\O)c1ccc2c(c1)OCCO2 (stereo not given) | – | inactive: 0%
63 | Cc1ccc(Nc2nc3c(S(=O)(=O)c4ccccc4)nnn3c3ccsc23)c(C)c1 | – | inactive: 15.3%
64 | CCCCN(C)C/C(O)=C(\C#N)c1nc(-c2ccccc2)cs1 | – | inactive: -13.1%
65 | CCN(CC)CCCNC(=O)CSc1c2c(nc3cc(Cl)ccc13)CCCC2 | inconclusive: 79.4 µM [inhibitor, partial curve, poor fit] and inconclusive: 100 µM [inhibitor, single point] | –

— PubChem BioAssay AID504847 (National Center for Advancing Translational Sciences (NCATS), 2011)
